Experimental data published in article PMC6189040.
No constants are given. Whether binding was seen depends on the method and setting. Some binding calls cover weakened binding; strength is not graded here.

Sequences of proteins named here, by UniProt entry; tags and fusion partners are left off. Residues count along the entry.
UniProt P04608, residues 1-72: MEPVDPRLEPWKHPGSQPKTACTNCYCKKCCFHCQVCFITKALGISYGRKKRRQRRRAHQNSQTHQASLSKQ
UniProt O60563, residues 1-280: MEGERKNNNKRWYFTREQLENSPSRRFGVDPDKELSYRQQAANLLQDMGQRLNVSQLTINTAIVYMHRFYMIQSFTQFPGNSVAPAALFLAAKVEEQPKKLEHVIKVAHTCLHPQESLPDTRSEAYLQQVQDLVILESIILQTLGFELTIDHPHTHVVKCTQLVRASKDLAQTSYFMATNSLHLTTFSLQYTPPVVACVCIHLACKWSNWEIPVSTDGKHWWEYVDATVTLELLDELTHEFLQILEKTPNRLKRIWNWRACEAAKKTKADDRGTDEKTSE

T1: AFF4 (32-67) (UniProt Q9UHB7)
T1 sequence: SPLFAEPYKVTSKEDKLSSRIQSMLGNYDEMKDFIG


Key:
HIV-1 Tat (1-72) (HIV-1) = HIV-1 Tat (1-72) (HIV-1) (UniProt P04608); assay: co-purification (Ni-NTA affinity, then SEC); three proteins co-expressed in High-five cells; lysate in 50 mM sodium phosphate pH 7.4, 300 mM NaCl, 10% glycerol, 0.1% 2-mercaptoethanol, 0.1% CHAPS; captured on Ni-NTA by His-Tat and His-GB1-AFF4, tags cleaved with TEV, second Ni-NTA, Superdex200 in 25 mM HEPES pH 7.5, 200 mM NaCl, 1 mM DTT, 5% glycerol
AFF4 (32-67) = molecular target: T1, AFF4 (32-67); assay: as above

Molecule	binding (HIV-1 Tat (1-72) (HIV-1))	binding (AFF4 (32-67))
Cyclin T (1-280) (from UniProt O60563 1-280) (domain or fragment)	binds	binds
SPLFAEPYKVTSKEDKLSSRIQSMLGNYDEMKDFIG (domain or fragment, UniProt Q9UHB7 32-67) [AFF4 (32-67)]	binds	–
